In paper PMC6486557:
No constants are given. Whether binding was seen depends on the method and setting. Binding seen in cells or lysates may run through a third protein. Some results given as binding are weak or reduced against the parent protein; the word gives no strength. For some of these results: Where a sequence is shown, tags or fusion partners need not be part of it.

The chains behind the UniProt entries cited, without tags or fusion partners.
UniProt O94874: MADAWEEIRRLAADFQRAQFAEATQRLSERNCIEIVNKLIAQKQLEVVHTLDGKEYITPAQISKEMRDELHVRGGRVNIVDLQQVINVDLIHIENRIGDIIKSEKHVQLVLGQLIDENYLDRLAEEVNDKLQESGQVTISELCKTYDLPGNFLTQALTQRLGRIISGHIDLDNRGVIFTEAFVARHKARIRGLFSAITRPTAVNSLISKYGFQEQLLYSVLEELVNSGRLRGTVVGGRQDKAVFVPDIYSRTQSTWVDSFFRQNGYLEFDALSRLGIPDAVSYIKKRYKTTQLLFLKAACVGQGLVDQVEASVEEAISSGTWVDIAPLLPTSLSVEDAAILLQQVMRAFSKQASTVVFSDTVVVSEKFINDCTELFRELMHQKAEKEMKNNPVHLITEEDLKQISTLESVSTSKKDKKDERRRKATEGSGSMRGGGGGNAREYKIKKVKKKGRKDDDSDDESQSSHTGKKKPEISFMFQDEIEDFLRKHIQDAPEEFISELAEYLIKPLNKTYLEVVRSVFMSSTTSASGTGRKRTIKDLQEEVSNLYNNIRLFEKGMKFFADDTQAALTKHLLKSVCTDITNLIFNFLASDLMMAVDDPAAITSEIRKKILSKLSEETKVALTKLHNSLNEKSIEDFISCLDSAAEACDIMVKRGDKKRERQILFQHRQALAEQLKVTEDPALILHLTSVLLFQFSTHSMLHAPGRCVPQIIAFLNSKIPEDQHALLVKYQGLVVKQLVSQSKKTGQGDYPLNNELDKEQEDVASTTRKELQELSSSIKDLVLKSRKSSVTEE
UniProt O60934: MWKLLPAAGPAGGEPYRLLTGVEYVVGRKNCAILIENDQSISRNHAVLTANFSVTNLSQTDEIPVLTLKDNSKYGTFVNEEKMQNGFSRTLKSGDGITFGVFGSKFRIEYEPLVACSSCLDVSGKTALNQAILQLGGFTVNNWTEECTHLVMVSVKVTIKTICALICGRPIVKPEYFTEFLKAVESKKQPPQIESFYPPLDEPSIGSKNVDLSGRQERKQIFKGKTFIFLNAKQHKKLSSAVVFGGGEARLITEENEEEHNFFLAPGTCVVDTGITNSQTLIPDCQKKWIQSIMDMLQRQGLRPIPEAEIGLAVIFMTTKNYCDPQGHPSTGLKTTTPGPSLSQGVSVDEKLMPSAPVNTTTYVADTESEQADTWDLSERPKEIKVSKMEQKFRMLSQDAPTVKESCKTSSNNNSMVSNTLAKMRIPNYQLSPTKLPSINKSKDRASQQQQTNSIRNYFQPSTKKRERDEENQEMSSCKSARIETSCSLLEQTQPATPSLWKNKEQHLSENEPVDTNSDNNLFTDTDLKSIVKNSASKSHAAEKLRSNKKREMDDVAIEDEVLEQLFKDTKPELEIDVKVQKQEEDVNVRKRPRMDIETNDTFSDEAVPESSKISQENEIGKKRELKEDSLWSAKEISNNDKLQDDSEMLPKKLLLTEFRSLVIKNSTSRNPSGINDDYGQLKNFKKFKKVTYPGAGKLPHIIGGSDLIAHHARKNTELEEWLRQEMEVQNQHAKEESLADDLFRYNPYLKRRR
UniProt Q92878: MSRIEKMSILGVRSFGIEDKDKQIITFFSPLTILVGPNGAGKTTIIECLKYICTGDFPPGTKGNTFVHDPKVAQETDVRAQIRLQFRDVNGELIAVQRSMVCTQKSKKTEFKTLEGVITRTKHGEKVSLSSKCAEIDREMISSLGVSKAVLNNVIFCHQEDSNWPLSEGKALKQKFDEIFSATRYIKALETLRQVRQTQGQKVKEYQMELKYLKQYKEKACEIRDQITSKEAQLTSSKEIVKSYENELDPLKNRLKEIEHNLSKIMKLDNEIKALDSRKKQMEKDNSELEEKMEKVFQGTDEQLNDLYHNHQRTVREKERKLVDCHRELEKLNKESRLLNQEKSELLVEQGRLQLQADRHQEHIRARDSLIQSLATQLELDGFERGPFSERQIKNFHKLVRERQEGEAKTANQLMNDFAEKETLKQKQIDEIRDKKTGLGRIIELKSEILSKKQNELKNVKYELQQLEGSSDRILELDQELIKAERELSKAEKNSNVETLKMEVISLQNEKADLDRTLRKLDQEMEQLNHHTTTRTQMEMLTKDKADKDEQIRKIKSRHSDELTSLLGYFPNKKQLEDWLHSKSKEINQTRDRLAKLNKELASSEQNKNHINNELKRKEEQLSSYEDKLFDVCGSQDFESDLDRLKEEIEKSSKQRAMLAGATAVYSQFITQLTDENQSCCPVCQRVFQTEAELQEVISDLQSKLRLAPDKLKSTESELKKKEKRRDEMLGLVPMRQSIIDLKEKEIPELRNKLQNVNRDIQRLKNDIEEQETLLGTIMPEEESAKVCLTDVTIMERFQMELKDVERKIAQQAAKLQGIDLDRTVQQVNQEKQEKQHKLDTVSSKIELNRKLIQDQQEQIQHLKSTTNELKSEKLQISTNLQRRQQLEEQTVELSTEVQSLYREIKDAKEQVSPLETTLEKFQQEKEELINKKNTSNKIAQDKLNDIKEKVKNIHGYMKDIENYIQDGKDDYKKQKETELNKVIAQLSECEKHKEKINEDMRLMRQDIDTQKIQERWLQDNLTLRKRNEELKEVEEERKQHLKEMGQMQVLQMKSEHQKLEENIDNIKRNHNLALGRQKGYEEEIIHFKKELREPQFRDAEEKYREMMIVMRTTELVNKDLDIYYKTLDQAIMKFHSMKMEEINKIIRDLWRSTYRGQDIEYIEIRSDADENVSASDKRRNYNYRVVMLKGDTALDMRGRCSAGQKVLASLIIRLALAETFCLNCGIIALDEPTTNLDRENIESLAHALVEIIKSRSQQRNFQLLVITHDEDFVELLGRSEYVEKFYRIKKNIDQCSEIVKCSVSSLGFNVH

Tests used:
HA-UFL1 = HA-UFL1 (UniProt O94874); test: co-IP; epitope-tagged proteins co-expressed in HEK293T cells; total cell lysates, IP and immunoblotting; cells treated with 10 ug/ml bleomycin or 5-Gy X-ray irradiation (time courses)
HA-UfSP2 = target: T1, HA-UfSP2 (UniProt Q9NUQ7); test: as above
T1 sequence: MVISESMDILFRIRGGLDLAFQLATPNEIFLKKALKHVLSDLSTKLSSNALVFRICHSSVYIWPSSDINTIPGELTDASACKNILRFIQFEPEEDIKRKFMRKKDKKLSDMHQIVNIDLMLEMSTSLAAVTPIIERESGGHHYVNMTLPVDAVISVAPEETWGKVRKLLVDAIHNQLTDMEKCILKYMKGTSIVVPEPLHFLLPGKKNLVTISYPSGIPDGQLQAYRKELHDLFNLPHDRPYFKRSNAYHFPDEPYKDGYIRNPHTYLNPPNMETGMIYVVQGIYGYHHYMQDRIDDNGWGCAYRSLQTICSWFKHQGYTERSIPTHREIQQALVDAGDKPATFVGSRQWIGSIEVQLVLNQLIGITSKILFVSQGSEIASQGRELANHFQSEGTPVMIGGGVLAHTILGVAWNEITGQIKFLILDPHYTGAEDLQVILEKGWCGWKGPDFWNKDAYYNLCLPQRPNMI

[1] = target: UFL1 (endogenous) (human (endogenous in HEK293T)) (UniProt O94874); test: co-IP; endogenous proteins in HEK293T total cell lysates; IP with UFL1, RAD50 or NBS1 antibodies and immunoblotting; cells treated with 10 ug/ml bleomycin (time course), UFL1 or control siRNAs, or overexpressing HA-UfSP2 or HA-UfSP2(C302S)

| binding (HA-UFL1) | binding (HA-UfSP2) | binding [1] | Substance |
| --- | --- | --- | --- |
| binds | binds | – | FLAG-NBS1 (from UniProt O60934 1-754) |
| – | – | binds | NBS1 (endogenous) (from UniProt O60934 1-754) |
| – | – | binds | RAD50 (endogenous) (from UniProt Q92878 1-1312) |
